Measured values: publication PMC3435375
No constants are given. Whether binding was seen depends on the method and setting. For some assays here: Binding seen in cells or lysates may run through a third protein. Some entries that bind do so weakly or less than the wild type. Sequences can lack the tags named with a protein.

Experiments:
[1] = biological target: T1, GAL4BD-K272NT, the N-terminal 272 aa fragment of KRIT1 fused to the GAL4 DNA binding domain (UniProt O00522); test: two-hybrid; GAL4 … system 3; pGBKT7-K272NT bait in AH109 mated with Y187 carrying a mouse embryo cDNA library in pACT2; positives rescued and retransformed into pGBKT7-K272NT- or pGBKT7-containing AH109; growth on SD/-Trp/-Leu/-His/-Ade
T1 sequence: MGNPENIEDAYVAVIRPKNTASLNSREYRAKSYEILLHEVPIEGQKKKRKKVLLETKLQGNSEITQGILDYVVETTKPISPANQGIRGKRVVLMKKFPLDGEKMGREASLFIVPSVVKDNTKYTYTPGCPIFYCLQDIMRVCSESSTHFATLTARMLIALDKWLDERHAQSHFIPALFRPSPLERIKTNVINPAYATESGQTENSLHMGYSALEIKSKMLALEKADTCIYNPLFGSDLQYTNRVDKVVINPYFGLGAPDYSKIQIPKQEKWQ

[2] = biological target: T2, GAL4BD fusion of K1AFERM, the FERM domain of KRIT1A (418-736) (pGBKT7-K1AFERM) (UniProt O00522); test: two-hybrid; small-scale assay; pGADT7-Nd1-L cotransformed with pGBKT7 KRIT1 constructs into AH109; growth on medium lacking His and Ade (HIS3, ADE2) and beta-galactosidase filter assay (LACZ)
T2 sequence: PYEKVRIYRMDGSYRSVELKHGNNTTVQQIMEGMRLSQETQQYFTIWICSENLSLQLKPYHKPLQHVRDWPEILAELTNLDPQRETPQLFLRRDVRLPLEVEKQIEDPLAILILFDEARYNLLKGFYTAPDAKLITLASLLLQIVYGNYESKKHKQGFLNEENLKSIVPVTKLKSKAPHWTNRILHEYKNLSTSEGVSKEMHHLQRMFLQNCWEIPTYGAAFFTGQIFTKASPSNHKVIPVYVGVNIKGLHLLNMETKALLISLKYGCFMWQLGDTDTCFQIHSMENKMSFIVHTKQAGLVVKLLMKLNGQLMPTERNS

[3] = biological target: T3, GAL4BD fusion of K1AΔ207, the N-terminal truncated portion of KRIT1A (208-736) (UniProt O00522); test: as above
T3 sequence: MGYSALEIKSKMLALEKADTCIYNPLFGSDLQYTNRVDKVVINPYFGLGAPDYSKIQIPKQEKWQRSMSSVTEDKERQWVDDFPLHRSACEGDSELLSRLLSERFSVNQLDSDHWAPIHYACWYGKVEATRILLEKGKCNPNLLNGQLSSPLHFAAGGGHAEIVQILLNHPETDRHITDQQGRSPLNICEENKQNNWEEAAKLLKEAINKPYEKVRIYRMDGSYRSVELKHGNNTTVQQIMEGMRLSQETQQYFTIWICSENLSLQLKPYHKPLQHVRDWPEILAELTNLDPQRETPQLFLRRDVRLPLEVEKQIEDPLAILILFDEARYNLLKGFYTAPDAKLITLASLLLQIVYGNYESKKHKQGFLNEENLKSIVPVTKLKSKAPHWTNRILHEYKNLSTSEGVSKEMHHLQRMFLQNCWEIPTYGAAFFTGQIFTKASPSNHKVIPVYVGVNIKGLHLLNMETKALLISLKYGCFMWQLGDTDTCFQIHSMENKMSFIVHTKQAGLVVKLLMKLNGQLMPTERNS

[4] = biological target: GAL4BD fusion of K207NT, KRIT1 N-terminal fragment (residues 1-207) (UniProt O00522); test: as above
[5] = biological target: GAL4BD fusion of full-length KRIT1A (pGBKT7) (UniProt O00522); test: as above
[6] = biological target: T1, GAL4BD-K272NT, the N-terminal 272 aa fragment of KRIT1 fused to the GAL4 DNA binding domain; test: as above
[7] = biological target: T4, GST-Nd1-L (496-642) fusion protein (mouse) (UniProt Q920Q8); test: pull-down; GST fusion proteins (40 ug) immobilised on glutathione-sepharose 4B beads, incubated 1 h at room temperature with HEK293 lysates overexpressing GFP- or 2FLAG-tagged proteins; washed three times with PBS; anti-GFP or anti-FLAG western blot; only the target purified
T4 sequence: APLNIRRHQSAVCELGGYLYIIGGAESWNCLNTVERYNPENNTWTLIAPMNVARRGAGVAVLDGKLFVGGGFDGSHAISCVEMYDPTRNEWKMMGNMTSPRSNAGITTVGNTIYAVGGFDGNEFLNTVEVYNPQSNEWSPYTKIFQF

[8] = biological target: GFP-KRIT1A (EGFP-tagged full-length KRIT1A, pEGFP-KRIT1A) (UniProt O00522); test: co-IP; HEK293 cells co-transfected with EGFP-KRIT1A or EGFP-KRIT1B and 2FLAG-Nd1-L; precipitated with anti-KRIT1, blotted with anti-FLAG
[9] = biological target: T5, GST-K1AFERM, the FERM domain of KRIT1A fused to GST (UniProt O00522); test: pull-down; GST fusion proteins (40 ug) immobilised on glutathione-sepharose 4B beads, incubated 1 h at room temperature with HEK293 lysates overexpressing GFP- or 2FLAG-tagged proteins; washed three times with PBS; anti-GFP or anti-FLAG western blot; only the target purified
T5 sequence: T2 sequence

GST-K272NT = biological target: T6, GST-K272NT (UniProt O00522); test: as above
T6 sequence: T1 sequence

[10] = biological target: GST-KRIT1A (full length KRIT1A in pGEX-4T1) (UniProt O00522); test: as above

B1: C17 clone, Nd1-L (496-642) fused with GAL4AD in the pACT2 vector (domain or fragment, UniProt Q920Q8-1 496-642)
chain: T4 sequence
For B1, the binding [1] was “binds”.

B2: GAL4AD fusion of full-length Nd1-L (pGADT7-Nd1-L) (protein, UniProt Q920Q8-1 1-642)
chain: MIPNGYLMFEDENFIESSVAKLNALRKSGQFCDVRLQVCGHEMLAHRAVLACCSPYLFEIFNSDSDPHGVSHVKLDDLNPEAVEVLLNYAYTAQLKADKELVKDVYSAAKKLKMDRVKQVCGDYLLSRMDVTSCISYRNFASCMGDSRLLNKVDAYIQEHLLQISEEEEFLKLPRLKLEVMLEDNVCLPSNGKLYTKVINWVQRSIWENGDSLEELMEEVQTLYYSADHKLLDGNPLDGQAEVFGSDDDHIQFVQKKPPRENGHKQISGSSTGCLSSPNASMQSPKHEWKIVASEKTSNNTYLCLAVLDSTFCVIFLHGRNSPQSSPTSTPKLSKSLSFEMQPDELLEKPMSPMQYARSGLGTAEMNGKLIAAGGYNREECLRTVECYDPHTDHWSFLAPMRTPRARFQMAVLMGQLYVVGGSNGHSDDLSCGEMYDPNIDDWTPVPELRTNRCNAGVCALNGKLYIVGGSDPYGQKGLKNCDVFDPVTKSWTSCAPLNIRRHQSAVCELGGYLYIIGGAESWNCLNTVERYNPENNTWTLIAPMNVARRGAGVAVLDGKLFVGGGFDGSHAISCVEMYDPTRNEWKMMGNMTSPRSNAGITTVGNTIYAVGGFDGNEFLNTVEVYNPQSNEWSPYTKIFQF
With B2 the binding [2] was “binds”, the binding [3] was “binds” and the binding [4] was “no binding”. The binding [5] was “binds” and the binding [6] was “binds”.

B3: GFP-K272NT (EGFP-tagged K272NT, pEGFP-C2) (domain or fragment, UniProt O00522 1-272)
chain: T1 sequence
With B3 the binding [7] was “binds”.

B4: 2FLAG-Nd1-L (pCR-2FLAG-Nd1-L, murine full-length Nd1-L) (protein, UniProt Q920Q8-1 1-642)
chain: B2 chain
In the case of B4, the binding [8] is reported as “binds”, the binding [9] is reported as “binds” and the binding (GST-K272NT) is reported as “binds”. The binding [10] was “binds”.
